Reference: PubChem BioAssay AID1347423 (Functional Genomics Laboratory (NCATS/FGL), 2020)
Hit rate of the full screen: of about 52,000 sequences, about 210 (0.4%) were called active.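 Rule for the calls: active = gene whose silencing raises cell survival under the drug, median off-target-corrected z-score across its silencing RNAs 2 or more; inactive = the rest.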 Some of the results follow.

assay: Resistance to Poly (ADP-Ribose) Polymerase inhibitor: Gene Identification via Genome-wide siRNA Screen; settings: mouse BRCA2 R2336H ES cells, olaparib, CellTiter-Glo viability; stronger effect = higher value
Excerpt: The role of Poly (ADP-Ribose) Polymerase (PARP) proteins in DNA repair has been elegantly utilized for the synthetic lethality-based treatment of BRCA-deficient tumors by PARP inhibitors. PARP inhibitors are now being used for treatment of BRCA-deficient breast and ovarian cancers. […] While several mechanisms of drug resistance have been identified, majority of these tumors develop drug resistance due to unknown causes. To identified novel regulators of chemo-resistance in BRCA2-mutated cells, we performed a genome wide siRNA library screen. We have found ES cells expressing a hypomorphic allele of BRCA2 to be hypersensitive to PAPP inhibitors (such as olaparib). We used ES cells expressing a mutant allele of BRCA2 that has a single amino acid substitution at position 2336 (arginine to histidine, R2336H). The screen was conducted using an Ambion (Thermo) Silencer Mouse Genome siRNA collection. The library targets 17,575 mouse genes with 3 siRNAs per gene. TET2 (E130014J05Rik) was identified as a top candidate.
Transfections were performed in 384 well plates (Corning 3707). Plates were coated with 0.1% gelatin in H2O overnight at ambient temperature. Gelatin solution was aspirated (BioTek EL406) and siRNAs were printed using a Bravo VPrep liquid handler integrated within a BioCel automation platform (Agilent). Cell viability was measured using CellTiter Glo (Promega). For transfections, […] of serum free media containing Lipofectamine RNAiMax […] was added to wells containing siRNA (0.8pmol). Lipid and siRNA were allowed to complex for 45 min at ambient temperature before addition of 1000 cells in DMEM, 30% FBS to yield final transfection mixtures containing 20 nM siRNA in DMEM, 15% FBS. PARPi (olaparib, AZD2281) was added 48 h post-transfection (500 nM) and viability (CellTiter Glo, Promega) was assayed 72 h later on a PerkinElmer Envision 2104 Multilabel plate reader. Ambion Silencer Select Negative Control #2 was incorporated on all screening plates (16 wells) and the median negative control value on each plate was used for normalization. An siRNA targeting Trp53 was used as a positive control. This control yielded a median protective effect of ~1.9 fold versus negative control throughout the screen. The median absolute deviation (MAD) based z-score was calculated for each siRNA. Genes were then ranked by taking the median value for all siRNAs tested against a given gene. Scores were also adjusted for seed-based off-target effects to help deprioritize likely false positives.

Sequence	z-score
CGAUUUCACAAAAACAUGATT against 1110059P08Rik	inactive: 0.959
GCAACAGUGAAAUAGCACATT against Ccm1	inactive: 0.0695
GCCUACAGAGUGAUCAACATT against Fxyd5	inactive: -0.216
GCCGGACUUCCCAUCUGUUTT against Srebf1	inactive: -0.523
GGAUUGUAGUCGUUUCUUCTT against Rdh14	inactive: -0.511
GCAUCCUGAGCAGUGAUAUTT against Taar7b	inactive: -0.718
GGCCUAUCUGACCUACACCTT against Wnt8a	inactive: 1.32
GGAAGUUUAGAGCAUGCCATT against 2410001H17Rik	inactive: -0.114
CCACCGGAUCGAAGACAGUTT against 5730590C14Rik	inactive: 1.04
GGCAGAUUCCAGGCUUCACTT against Olfr513	inactive: -0.0146
CCCGCCAGAUGAUGCAUAATT against Unc5cl	inactive: -0.383
GGCCUCCUGAUUUGAUUGUTT against 2300002G24Rik	inactive: 0.76
CCUUUCCUACUCUGUACCCTT against Abcg1	inactive: -0.697
CGAAUAGUUCCAGAAGACGTT against F730031O20Rik	inactive: -0.427
GGUAGCUGACAAAGAGUAATT against Sp5	inactive: -0.51
GGAUAAAACUGGUUACUCUTT against Gpr110	inactive: 0.32
CCUUUCAAUUGGCUCUGAATT against Sumo1	inactive: -0.155
GCCAAGGACUCAGUGAAUGTT against Iqsec2	inactive: -0.88
CCCUAAUUCAUGGACCUUGTT against Kremen2	inactive: -2.17
GAUGUUCUGCAUCUACUUUTT against Olfr545	inactive: -0.106
CCCAUCUGUUUGAGUGUAUTT against Ms4a1	inactive: -1.62
GGUGAACCUCCAGAACAAUTT against Bcap31	inactive: 0.727
GGAAAUAAACCCUUGAUAUTT against Rhof	inactive: -1.93
GCCCUCGAGAAGCUCUCAUTT against Zfp202	inactive: -1.28
GGUCACAGACCAAGCUUAUTT against Mmp15	inactive: 1.15
GGAGUUCAGGAAAAUUCUUTT against Csdufd1	inactive: 1.97

Four entries picked at random from the list so far, as already listed:
Sequence	z-score
GCCUACAGAGUGAUCAACATT against Fxyd5	inactive: -0.216
GCCAAGGACUCAGUGAAUGTT against Iqsec2	inactive: -0.88
GGAAGUUUAGAGCAUGCCATT against 2410001H17Rik	inactive: -0.114
GCAUCCUGAGCAGUGAUAUTT against Taar7b	inactive: -0.718

(listing goes on)

Sequence	z-score
GGACAUAUAGCUGAUUUCUTT against Ctdsp2	inactive: 1.04
GCUGGAAUACGUUGAUAUATT against Kcnab3	inactive: -0.643
GGAUAAGACCAUCAGAUUATT against Wdr31	inactive: 0.514
GGACUUAUUGCUUCAGUCUTT against Resp18	inactive: -0.266
GGCAGCUCCUUCACAUUUUTT against Net1	inactive: -0.0439
GGGUCACUACAUUUGACACTT against Sh3glb2	inactive: -0.464
GGGUUAGCCAGAGCUCUAATT against B230342M21Rik	inactive: -2.1
GGUCAAUGUGUUUAUGUGATT against Nxt2	inactive: 1.09
GGUUUUCCAGAGAAACCACTT against Rhox7	inactive: -0.0887
CGAAGUGAGGCAAAUCGAATT against Stx18	inactive: 0.185
GGCGAGAUUAAAAAAUGGUTT against Zhx1	inactive: 0.239
GCAAAUUACCACAUUGUCUTT against Adam12	inactive: 0.869
GGACAUGAAUGCAUUUUUATT against Klhl8	inactive: 0.251
GCUUGCCUGACCUGAAACATT against 9430083G14Rik	inactive: -2.66
GGUUCAGUUGAUGCUUUAUTT against Lrba	inactive: 0.759
GGAGUAUGGGAUAAUUCUATT against C630025C03	inactive: -0.812
GGAUCAGGAGGCCAUCACATT against 4933421I07Rik	inactive: -2.59
CGGGUUGUACCUGAGUCUGTT against Tmpit	inactive: -0.144
CCAAGACCCUAAUAUCUAUTT against 2610204L23Rik	inactive: 0.739
CGGCAACAAAUUCUACUCUTT against Ambp	inactive: 0.195
GGAGUUUUCAGCAACAAAUTT against Fgf5	inactive: 0.296
GCAUGAUGCAUACAAAGGCTT against Etfa	inactive: -0.875
GGAGCUAGCCAACUUCGAUTT against Lisch7	inactive: 0.778
GGUUUGUAUUGUAACUUUGTT against Abi1	inactive: -0.0984
GGAAAAUCCCUCUUUGGCUTT against Sez6l2	inactive: 0.73
CCCAGGAUAUAAUUCAACUTT against 1300003K24Rik	inactive: 1.38

Sequence	z-score
CCUAGACGUGACUUAAUAUTT against Rabggtb	inactive: 0.7
GCCAUUUCCUACAAUGCUUTT against Olfr1443	inactive: -0.402
GGUACGAAGUCAAAGUGAATT against Dnmt3l	inactive: 0.0858
GGCAUGGUGGGACAUUUCUTT against Pla1a	inactive: -1.98
GCAUUGAAGUCACCUCCACTT against Clcn2	inactive: 0.659
CCGAAAGGCUGGUACAUUCTT against Kin	inactive: -1.77
GGAAAAGCAACACAUCUAUTT against Chst7	inactive: -0.488
GGCGAUGACAAGGAUCCUUTT against 1810044O22Rik	inactive: 0.409
GGAGUUUAUGAGGAACUCGTT against Zwint	inactive: 0.663
GGACAGUUAGAUGGAUUGUTT against Msc	inactive: -0.314
GGAGUUUGUUAACAGAGUATT against Pcyt1b	inactive: -0.289
CGAGGUCGAUGGAUAAAGGTT against Scnm1	inactive: 0.16
GCUGUGUAUAAACAUCCUATT against Dscr5	inactive: 0.996
GCUAACAUUGUAAAUGCACTT against Dmrta1	inactive: 0.847
CCUCGAAUUACGUAUGUUUTT against Fyn	inactive: 0.663
GCAUAAAACACUAAGGAAATT against Csnk	inactive: -1.11
GCUUACUGUCCCUUAAGUUTT against A930005I04Rik	inactive: -0.182
CCAGUUGAAAUAUUGAGCATT against Mbnl3	inactive: 0.155
GGCUACAGAAGGUGUUCAGTT against Klra22	inactive: -2.23
GGACAAGAAAAAGUCCAGATT against Dhx38	inactive: 0.974
AAGGAAGUCUGUCCAAGGUTT against Olfr192	inactive: -1.41
GGUCAAAGAGUUCUGUGAATT against Ppp2r1a	inactive: -1.45
GGAGGUGGAACAAAUAUUUTT against 0610009E20Rik	inactive: 0.371
GCUAACCAUGUGACAAUAATT against Timm8a	inactive: -0.132
GGCCAACCUGUUCAUCAGCTT against Bdkrb1	inactive: 0.956
GGUUUGCUAGCUGACAACCTT against Dpep1	inactive: 1.32

Sequence	z-score
GGAGCUGAGCAGUGAUGAATT against 4933437K13Rik	inactive: -0.622
GGACUGAUUGAUAAAGUCATT against Srp54	inactive: -1.33
GGACUGUUGAAUAAAACCUTT against Rnps1	inactive: -1.02
GGAGAAAGAGGAGAAGAAATT against 4931414P19Rik	inactive: -1.86
CCCUAAUAAUCAAUGCAUCTT against 2010002M12Rik	inactive: 0.596
GUCCAGAGUGACCACAUUUTT against Pemt	inactive: -1.32
GGGAACCAGGGACUUUGAUTT against LOC224833	inactive: -0.399
CGGGAGACUGGUUAUCAACTT against Tssc1	inactive: 0.858
GGUCGACUGAAGGCCUUUUTT against Olfr1339	inactive: -1.43
GGGAGCAGUAGCAGUGUCATT against Zfp403	inactive: 1.82
GGAGCUGGACAAGUUCAUGTT against Ush3a	inactive: -1.39
GGAUGAUGGAGGGAAACUUTT against D330028D13Rik	inactive: -1.29
GGUGACAUUGUAAUAACCATT against Sult1b1	inactive: -1.01
CCAGAGUACAGUGUAGUCATT against Hspb6	inactive: -2.5
GGACAUUGUGCUAUUUUAATT against Mepe	inactive: 2.35
GGGAAACUCUGCAUGAGUATT against Odz1	inactive: -0.167
GGAAUCUCAAUGAAAGAUGTT against B830017A01Rik	inactive: 0.492
GCCUAUGGCUGGUCAGUGUTT against LOC271048	inactive: 0.367
GGGUUCUUGGACAAACAGGTT against Eps15-rs	inactive: -0.128
GGAGAGUAUUCCAAGGUCCTT against Mrpl14	inactive: 0.567
UCUAUCUCAUUACUAUUGUTT against Olfr190	inactive: 1.13
GGAUUUAAUAGCCAUCGGUTT against Slc26a8	inactive: -0.333
GGAUCUUGACUUUGAUAUGTT against Trpm4	inactive: 0.316
GGUCCUAGGUGCUAUAAUGTT against Matn4	inactive: -1.01
GCUGAAGAGAUAUGAGUUCTT against Dpp3	inactive: 1.28
GGCAGCUUUGGAACAACUATT against 2700069A02Rik	inactive: -0.481
